## Percent effect of library compounds

The chains behind the UniProt entries cited, without tags or fusion partners. Residues count along the entry.
UniProt P9WPC5, whole entry: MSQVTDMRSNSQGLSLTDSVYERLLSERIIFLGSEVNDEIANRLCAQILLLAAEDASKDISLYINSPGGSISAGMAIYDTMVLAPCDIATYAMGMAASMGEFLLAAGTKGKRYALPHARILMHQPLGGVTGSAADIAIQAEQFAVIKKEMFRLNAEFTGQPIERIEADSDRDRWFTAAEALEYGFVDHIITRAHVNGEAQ
UniProt P9WPC3, whole entry partner: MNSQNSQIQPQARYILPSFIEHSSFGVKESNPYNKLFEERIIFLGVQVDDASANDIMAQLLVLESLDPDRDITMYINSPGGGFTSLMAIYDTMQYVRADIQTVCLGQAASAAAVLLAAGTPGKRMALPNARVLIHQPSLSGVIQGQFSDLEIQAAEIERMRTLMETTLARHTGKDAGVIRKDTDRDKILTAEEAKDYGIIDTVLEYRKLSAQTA
UniProt Q8IDJ8, 1-583: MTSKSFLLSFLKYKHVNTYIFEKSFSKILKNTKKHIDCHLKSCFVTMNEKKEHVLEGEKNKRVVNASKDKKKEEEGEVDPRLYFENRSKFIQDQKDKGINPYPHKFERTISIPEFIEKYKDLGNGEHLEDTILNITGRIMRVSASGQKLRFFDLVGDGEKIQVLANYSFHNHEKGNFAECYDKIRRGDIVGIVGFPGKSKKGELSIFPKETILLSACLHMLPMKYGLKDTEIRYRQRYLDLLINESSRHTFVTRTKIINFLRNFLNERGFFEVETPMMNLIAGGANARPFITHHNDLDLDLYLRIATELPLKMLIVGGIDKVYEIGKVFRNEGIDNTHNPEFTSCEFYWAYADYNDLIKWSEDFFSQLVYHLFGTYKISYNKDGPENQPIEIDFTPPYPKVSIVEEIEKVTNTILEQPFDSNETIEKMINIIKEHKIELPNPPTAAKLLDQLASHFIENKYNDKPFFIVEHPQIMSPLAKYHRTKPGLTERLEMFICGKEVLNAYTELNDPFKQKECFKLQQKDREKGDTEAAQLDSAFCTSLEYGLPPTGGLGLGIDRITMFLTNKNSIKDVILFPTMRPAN

Leishmania in macrophages: 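Cell assay of Leishmania donovani living inside macrophages; the read-out is not stated. Compounds at 30 µM. Higher reads as stronger inhibition (inferred: compounds with an IC50 in retests scored well above the rest). Of about 69,000 compounds tested this way, about 1,000 (1.5%) reached 50% or more in at least one test.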
ClpP1P2: 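Protease assay of ClpP1P2, read by the AMC dye that it sets free. Target: ClpP1P2, Mycobacterium tuberculosis (UniProt P9WPC5 and UniProt P9WPC3). Compounds at 50 µM. Direction is inferred from only a few compounds that gave an IC50; most scored high, so higher reads as stronger inhibition. Most other retested compounds had strongly negative values. About 69,000 compounds were tested under these conditions; 0.015% (about 10) showed 50% or more at least once.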
Toxoplasma: 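Assay of Toxoplasma gondii numbers, read through their beta-galactosidase reporter with a colour substrate. Compounds at 10 µM. Higher reads as fewer parasites (inferred from which compounds were picked for retests). About 67,000 compounds were tested under these conditions; 0.38% (about 260) showed 50% or more at least once.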
PfKRS1: 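Lysine-tRNA ligase, Plasmodium falciparum 3D7 (UniProt Q8IDJ8). Enzyme assay of the cytosolic lysyl-tRNA synthetase in 384-well plates, read by luminescence. Tested at 30 µM. Direction is inferred from only a few compounds that gave an IC50; most scored high, so higher reads as stronger inhibition. Size under these conditions: about 69,000 compounds, about 49 of them at 50% or above in at least one test.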

Results are given as percent effect.
The record does not define 0% and 100%; most values in the screen are far below 50% and negative numbers occur (in some assays of this library far below -100).
Compounds were drawn at random from those tested, without regard to their results.
Two or more numbers in one place are separate tests of the same structure; such repeats can differ widely.

Result for OC1CCN(Cc2c(-c3ccco3)[nH]c3ncccc23)CC1 was Leishmania in macrophages: 18.44% & 19.86%; ClpP1P2: -3.212%; Toxoplasma: -9.681%; PfKRS1: 2.998%.
Result for O=C(CCNC(=O)c1ccoc1)NCc1ccccc1F was Leishmania in macrophages: 0.1265%; ClpP1P2: 5.184%; Toxoplasma: -6.438%; PfKRS1: 1.702%.
Result for Cc1nc(NC2CCCCC2)cc(C2CCCNC2)n1.Cl (stereo not given) was Leishmania in macrophages: 1.261%; Toxoplasma: 6.951%.
Result for CC(=O)N1CCC2(CC1)CCN(C(=O)c1ccc(F)c(C(F)(F)F)c1)C2 was Leishmania in macrophages: -8.189%; ClpP1P2: 6.621%; Toxoplasma: -0.05945%; PfKRS1: 1.085%.
Result for O=C(c1nn(-c2ccccc2F)cc1O)N1CCCCC1 was Leishmania in macrophages: -8.836%; ClpP1P2: 3.341%; Toxoplasma: -5.265%; PfKRS1: 1.555%.
Result for COc1ccc(NC2CCCN(Cc3cnc(N(C)C)s3)C2)cc1OC (stereo not given) was Leishmania in macrophages: 7.964%; ClpP1P2: 0.4308%; Toxoplasma: 10.5%; PfKRS1: 2.925%.
Result for Cc1cc(CN2CCC(C3CCN(CC(C)C)CC3)C2)[nH]n1 (stereo not given) was Leishmania in macrophages: -15.84%; ClpP1P2: -14.05%; Toxoplasma: -10.75%; PfKRS1: 3.051%.
Result for Cc1ccc(-n2c(COC(C)C)n[nH]c2=O)cc1 was Leishmania in macrophages: -9.382%; ClpP1P2: -23.37%; Toxoplasma: 1.14%; PfKRS1: 2.667%.
Result for O=C1CN(C(=O)c2cc(Cl)ccc2F)c2ccccc2N1 was Leishmania in macrophages: 24.01%; ClpP1P2: 7.8%; Toxoplasma: 18.72%; PfKRS1: 4.661%.
Result for OC1COCCN(Cc2cccc(N3CCOCC3)c2)C1 (stereo not given) was Leishmania in macrophages: 31.83%; ClpP1P2: -25.38%; Toxoplasma: -3.845%; PfKRS1: 5.403%.
Result for [H][C@]12CN(C(=O)NC(C)C)CCN1C(=O)N(Cc1ccc(F)cc1)C2 was Leishmania in macrophages: -11.58%; Toxoplasma: 0.07722%.
Result for Cc1nnc(-c2cccc(C#N)c2)n1C1CCN(C2CC2)C1=O (stereo not given) was Leishmania in macrophages: -22.31%; ClpP1P2: -9.693%; Toxoplasma: -12.5%; PfKRS1: -1.231%.
Result for CCN(CC)C(=O)CSc1ncc[nH]1 was Leishmania in macrophages: 13.04%; ClpP1P2: 0.2659%; Toxoplasma: -2.904%; PfKRS1: -0.352%.
Result for Cc1nn(C)c2ncc(CN3CCN(Cc4ccco4)CC3)cc12 was Leishmania in macrophages: 1.694%; ClpP1P2: -4.63%; Toxoplasma: 15.44%; PfKRS1: -1.819%.
Result for O=C(NCC(O)c1cccs1)c1cccc(Cl)c1 (stereo not given) was Leishmania in macrophages: 16.5%; ClpP1P2: -5.393%; Toxoplasma: -1.752%; PfKRS1: 7.314%.
Result for Cc1ccc2snc(C(=O)N3CCN(C(=O)NCCC(C)C)CC3)c2c1 was Leishmania in macrophages: -8.467% & 20.82%; ClpP1P2: -12.52%; Toxoplasma: 11.83%; PfKRS1: -52.1%.
Result for Cc1cnn(C2CCCN(C(=O)c3cc(-c4cccs4)n[nH]3)C2)c1 (stereo not given) was Leishmania in macrophages: 21.69%; ClpP1P2: -3.409%; Toxoplasma: -38.89%; PfKRS1: 5.499%.
Result for CC(C)(C)OC(=O)N1CCC(C(=O)NCc2cc3ccccc3[nH]2)C1 (stereo not given) was Leishmania in macrophages: 29.25%; ClpP1P2: -9.44%; Toxoplasma: 5.481%; PfKRS1: 3.768%.
Result for CN(Cc1csc(-c2cccs2)n1)C(=O)CCn1ccccc1=O was Leishmania in macrophages: 35.84%; ClpP1P2: -1.777%; Toxoplasma: -2.753%; PfKRS1: 6.274%.
Result for CC(C)c1nc(C2CCCN(C(=O)CN3CCN(C)CC3)C2)no1 (stereo not given) was Leishmania in macrophages: 3.851%; ClpP1P2: 13.32%; Toxoplasma: -0.3544%; PfKRS1: 8.321%.
Result for Cc1c(C2CC(=O)Nc3c2cnn3C(C)(C)C)cnn1C (stereo not given) was Leishmania in macrophages: 43.66%; ClpP1P2: -7.919%; Toxoplasma: -0.4173%; PfKRS1: 4.924%.
Result for CN(C)CC1(O)CCN(C(=O)c2cnc(CN3CCCC3)s2)C1 (stereo not given) was Leishmania in macrophages: 13.81%; ClpP1P2: -5.416%; Toxoplasma: 14.08%; PfKRS1: 2.279%.

The first 3 entries again:

OC1CCN(Cc2c(-c3ccco3)[nH]c3ncccc23)CC1 read Leishmania in macrophages: 18.44% & 19.86%; ClpP1P2: -3.212%; Toxoplasma: -9.681%; PfKRS1: 2.998%.
O=C(CCNC(=O)c1ccoc1)NCc1ccccc1F read Leishmania in macrophages: 0.1265%; ClpP1P2: 5.184%; Toxoplasma: -6.438%; PfKRS1: 1.702%.
Cc1nc(NC2CCCCC2)cc(C2CCCNC2)n1.Cl (stereo not given) read Leishmania in macrophages: 1.261%; Toxoplasma: 6.951%.

From ChEMBL document CHEMBL3988442, “University of Dundee, Small-Polar-MMV Screening Library” (2021).